Source: patent publication US5204341A, “1-arylsulphonyl-2-pyrrolidone derivatives, their preparation process and the new intermediates obtained, their use as medicaments and the pharmaceutical compositions containing them” (priority 1990, dated 1993)
For at least one compound, name, drawing or mass did not settle the structure. Some entries share one result that the patent states for a list of compounds.

The compounds below were run against T1, Muscarinic receptor 1 (Rattus norvegicus, UniProt P08482) (assay: Affinity for the muscarinic M1 receptor ([^3 H]pirenzepine binding, rat cortex)). Conditions: not given.
T1 construct: cortex removed from the brains of male rats weighing 150 to 200 g (Iffa Credo); from tissue; host or cells: rat cerebral cortex homogenate
T1 sequence (P08482 1-460): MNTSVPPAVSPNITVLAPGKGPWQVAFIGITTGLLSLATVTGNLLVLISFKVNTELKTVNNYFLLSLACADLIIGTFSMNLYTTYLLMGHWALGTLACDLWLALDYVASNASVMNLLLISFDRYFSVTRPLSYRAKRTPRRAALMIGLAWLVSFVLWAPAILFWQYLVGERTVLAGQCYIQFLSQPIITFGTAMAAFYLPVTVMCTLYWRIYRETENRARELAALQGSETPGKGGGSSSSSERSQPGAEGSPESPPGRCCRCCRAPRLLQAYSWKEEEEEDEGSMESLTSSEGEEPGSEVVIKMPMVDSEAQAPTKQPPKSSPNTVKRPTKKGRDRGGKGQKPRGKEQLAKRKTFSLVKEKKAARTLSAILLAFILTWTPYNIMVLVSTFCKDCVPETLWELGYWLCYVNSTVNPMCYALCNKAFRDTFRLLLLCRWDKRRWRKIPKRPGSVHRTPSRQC
Description: Its preparation is carried out from cortex removed from the brains of male rats weighing 150 to 200 g (Iffa Credo) ground up in a Polytron in a 10 mM Na/K pH 7.4 buffer. After incubation (0.5 ml aliquots of homogenate) for 60 minutes at 25° C. in the presence of 0.25 nM of ^3 H pirenzepine either on its own, or with the product to be tested, or with an excess of pirenzepine at 10^-5 M (in order to determine the non-specific fixed radioactivity), the incubates are cooled down and filtered.
The filtration is carried out on Whatman GF/C filters prewashed in a 0.05% polyethylene imine solution. The filters are rinsed with 3×5 ml of 10 mM Na/K pH 7.4 phosphate buffer, then measurements are carried out by liquid scintillation.
The results are expressed in IC50 (concentration necessary to inhibit 50% of the fixed specific radio-activity).

Compound	affinity for the muscarinic receptor (in words)
O=C1CC(O)CN1S(=O)(=O)c1ccc(N2CCCCCC2)cc1 (centres unmarked) [Example 6, 1-[[4-(hexahydro-1H-azepin-1-yl)-phenyl]-sulphonyl]-4-hydroxy-pyrrolidinon]	remarkable and useful affinity for the muscarinic receptor
CCN(CC)c1ccc(S(=O)(=O)N2CC(O)CC2=O)cc1 (centres unmarked) [Example 1, 1-[[4-(diethylamino)-phenyl]sulphonyl]-4-hydroxy-2-pyrrolidinone]	remarkable and useful affinity for the muscarinic receptor
O=C1CC(O)CN1S(=O)(=O)c1ccc(N2CCCCC2)cc1 (centres unmarked) [Example 4, 4-hydroxy-1-[[4-(1-piperidinyl)-phenyl]-sulphonyl]-2-pyrrolidinone]	remarkable and useful affinity for the muscarinic receptor
O=S(=O)(c1ccc(N2CCCCC2)cc1)N1CC(O)CC1=S (centres unmarked) [Example 5]	remarkable and useful affinity for the muscarinic receptor
CCN(CC)c1ccc(S(=O)(=O)N2CC(O)CC2=S)cc1 (centres unmarked) [Example 3, 1-[[4-(diethylamino)-phenyl]-sulphonyl]-4-hydroxy-2-pyrrolidine thione]	remarkable and useful affinity for the muscarinic receptor
1-[[4-(dimethylamino)-phenyl]-sulphonyl]-4-(2,2-dimethyl-1-oxo-propoxy)-2-pyrrolidinone [Example 2]	remarkable and useful affinity for the muscarinic receptor

The compounds below were run against Muscarinic receptor 2 (assay: Affinity for the muscarinic M2 receptor ([^3 H]quinuclidinyl benzylate binding, rat brain)). Conditions: 0.3 nM ^3 H quinuclidinyl benzylate, 60 min, 25° C., pH 7.5.
Description: The preparation is carried out from the brains of male rats weighing 150 to 200 g (Iffa Credo).
The brains are ground up (Teflon-glass) in a 0.32 M sucrose solution. The homogenate is centrifuged for 10 minutes at 1000 g (0-4° C.).
The supernatant obtained is collected and centrifuged again at 30000 g for 15 minutes (0-4° C.).
The deposit is put in suspensions in a 50 mM Tris pH 7.5 buffer and the new homogenate is centrifuged again at 30000 g for 15 minutes (0-4° C.).
After elimination of the supernatants, the deposits can be used immediately or kept for up to one month at -30° C.
For one experiment the deposits are firstly defrosted, if necessary, at ambient temperature and put in suspension using a Dounce grinder in a 50 mM Tris pH 7.5 buffer. 2 ml aliquots are incubated for 60 minutes at 25° C. in the presence of 0.3 nM of
^3 H quinuclidinyl benzylate either on its own, or with the product to be tested, or with benzatropine at 10^-5 M in order to determine the non-specific fixed radioactivity.
At the end of the incubation, the tubes of incubate are cooled down to 4° C. and the incubate is filtered rapidly on Whatman GF/C filters. The filters are rinsed with 3×5 ml of 50 mM Tris pH 7.5 buffer then measurements are carried out by liquid scintillation (Henry I Yamamura, Solomon H. Synder, Proc. Nat. Acad Sc. (1974) 71, No. 5, 1725-1729). […]

Compound	IC50 [µM]
O=C1CC(O)CN1S(=O)(=O)c1ccc(N2CCCCCC2)cc1 (centres unmarked) [Example 6, 1-[[4-(hexahydro-1H-azepin-1-yl)-phenyl]-sulphonyl]-4-hydroxy-pyrrolidinon]	4.5
O=S(=O)(c1ccc(N2CCCCCC2)cc1)N1CC(O)CC1=S (centres unmarked) [Example 7, 1-[[4-(hexahydro-1H-azepin-1-yl)-phenyl]-sulphonyl]-4-hydroxy pyrrolidine thione]	10
